Source: PubChem BioAssay AID743454 (Peter MacCallum Cancer Centre, 2014)

- Screen: 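Search for knock-downs that restore vorinostat killing in resistant colon cancer cells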 (primary screen)
- Cell system: human HCT116-VR colon cancer cells, selected for vorinostat resistance
- Reagent: siRNA pool against human genes, 40 nM siRNA pool
- Duration: vorinostat for 24 h, read-out about 72 h after transfection
- Challenge: vorinostat at 2.5 µM final
- Measurement: 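Two measures, CellTiter-Fluor viability and luminescent caspase 3/7 activity, each as fold change against same-plate mock wells, mean of duplicates, then screen-wide robust z-score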
- Scale: viability robust z-score: higher = more viable cells than screen typical; caspase robust z-score: higher = more caspase 3/7 activity than screen typical
- Active means: 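Hits are knock-downs in viability class RV1/RV2 or caspase class CA1/CA2, excluding ones that killed cells in the no-drug cell-count arm; hits then retested with single siRNAs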
This is one part, drawn at random, of about 18,000 reagents. Of all reagents, 450 (2.5%) were called active. 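Single biological run; no consistent viability z cut-off exists, so the class columns, not z-scores, define the calls.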

The first 7 records as a preview:
gene symbol	viability hit class	caspase hit class	viability robust z-score	caspase robust z-score	activity call
ARMC1	no change	no change	1.77	-0.23	inactive
HOXA2	no change	CA1 (caspase activation)	-0.58	5.66	active
CAND2	no change	no change	-1.61	4.25	inactive
EYS	no change	no change	-0.55	0.73	inactive
LOXL3	no change	no change	-0.36	0.42	inactive
SUSD6	no change	no change	0.13	1.12	inactive
NSUN3	no change	no change	-0.6	-0.6	inactive

Main list, from the start:
gene symbol	viability hit class	caspase hit class	viability robust z-score	caspase robust z-score	activity call
ARMC1	no change	no change	1.77	-0.23	inactive
HOXA2	no change	CA1 (caspase activation)	-0.58	5.66	active
CAND2	no change	no change	-1.61	4.25	inactive
EYS	no change	no change	-0.55	0.73	inactive
LOXL3	no change	no change	-0.36	0.42	inactive
SUSD6	no change	no change	0.13	1.12	inactive
NSUN3	no change	no change	-0.6	-0.6	inactive
TAOK3	no change	no change	1.12	-0.94	inactive
CBX8	no change	no change	0.83	-0.55	inactive
PKD2	no change	no change	-0.48	2.17	inactive
ZBTB39	no change	no change	0.78	0.71	inactive
OR8B4	no change	no change	1.57	-0.14	inactive
GPER1	RV2 (reduced viability)	CA2 (caspase activation)	-3.08	8.61	active
CAPZB	no change	no change	-0.96	3.38	inactive
MME	no change	no change	-0.31	-0.4	inactive
OR2T5	no change	no change	0.3	0.97	inactive
AMBRA1	no change	no change	-0.82	4	inactive
ZBTB7A	no change	no change	0.06	-0.44	inactive
DSC2	no change	no change	0.66	0.42	inactive
ZNF629	RV2 (reduced viability)	no change	-3.05	4.64	active
B4GALNT2	no change	no change	-0.73	-0.86	inactive
GTF3C5	no change	no change	1.88	0.98	inactive
OR10W1	no change	no change	-1.45	0.58	inactive
NDUFS4	no change	no change	0.08	1.42	inactive
VWA5A	no change	no change	0.43	-0.16	inactive
MTCL3	no change	no change	-0.36	-0.53	inactive
DEDD	no change	no change	-0.51	0.11	inactive
CHERP	no change	no change	-0.97	1.04	inactive
B4GALT6	no change	no change	0.36	-0.72	inactive
POFUT2	no change	no change	-1.15	0.93	inactive
CBX3	no change	no change	0.67	-0.03	inactive
HARS1	no change	no change	0.18	0.9	inactive
ATP1A3	no change	no change	-0.23	-0.5	inactive
YARS1	no change	no change	0.2	0.8	inactive
NTNG1	no change	no change	0.94	-1.04	inactive
RNF128	no change	CA2 (caspase activation)	-1.6	12.1	active
SPZ1	no change	no change	-1.49	1.33	inactive
TRPM3	no change	no change	-0.46	0.91	inactive
AGRP	no change	no change	-0.87	-0.97	inactive
MBP	no change	no change	0.74	3.94	inactive
S100A6	no change	no change	-0.9	2.73	inactive
RPN1	no change	no change	-0.84	1.82	inactive
EEF1AKMT3	no change	no change	-0.68	4.57	inactive
RIPOR3	no change	no change	0.78	-0.96	inactive
PTPRK	no change	no change	2.82	1.8	inactive
SAMHD1	no change	no change	0.18	0.45	inactive
CIB4	no change	no change	-0.36	-0.22	inactive
TPRN	no change	no change	-0.1	0.21	inactive
RAB15	no change	no change	0.6	0.53	inactive
CNDP2	no change	no change	0.72	-0.22	inactive
LAD1	no change	CA2 (caspase activation)	-0.84	6.77	active
MRPS11	no change	CA1 (caspase activation)	-1.23	5.99	active
ZC4H2	no change	no change	-0.06	-0.38	inactive
TOPBP1	no change	no change	-0.02	4.77	inactive
PPIL6	no change	no change	1.05	0.01	inactive
DERL3	no change	no change	-0.55	0.96	inactive
CD109	no change	no change	-1.07	0.12	inactive
